These are yes or no findings as the source states them, for the method shown. Where a sequence is shown, tags or fusion partners need not be part of it.
Tests used:
[1] = target: T1, His-tagged Mouse ACVR2B (mouse) (UniProt P27040); experiment: ELISA, coated antigen, 10 pt
T1 sequence (looked up): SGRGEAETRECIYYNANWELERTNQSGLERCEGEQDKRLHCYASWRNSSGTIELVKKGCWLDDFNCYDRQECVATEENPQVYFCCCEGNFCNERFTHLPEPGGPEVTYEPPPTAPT

[2] = target: T2, His-tagged Human ACVR2B (human) (UniProt Q13705); experiment: ELISA, coated antigen, 10 pt
T2 sequence (looked up): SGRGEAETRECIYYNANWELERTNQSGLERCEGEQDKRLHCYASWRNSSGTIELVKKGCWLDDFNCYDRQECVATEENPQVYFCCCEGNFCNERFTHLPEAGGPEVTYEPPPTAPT

B1: 375_E10 (antibody, V domains shown)
VH: EVQLLESGGGLVQPGGSLRLSCAASGFTFSSYSMNWVRQAPGKGLEWVSGINYNGGYTSYADSVKGRFTISRDNSKNTLYLQMNSLRAEDTAVYYCARGANWHDTALDYWGQGTLVTVSS
VL: DIQMTQSPSSLSASVGDRVTITCRASQSILSYLNWYQQKPGKAPKLVIYAATSRASGVPSRFSGSGSGTDFTLTISSLQPEDFATYYCQQSYDNPLTFGGGTKVEIK
In the case of B1, the binding [1] is reported as “no binding (tested: 1 uM)” and the binding [2] is reported as “no binding (tested: 1 uM)”.

B2: 375_F02 (antibody, V domains shown)
VH: EVQLLESGGGLVQPGGSLRLSCAASGFTFSSYSMNWVRQAPGKGLEWVASINYNSGYTSYADSVKGRFTISRDNSKNTLYLQMNSLRAEDTAVYYCARGANWHDTHLDYWGQGTLVTVSS
VL: DIQMTQSPSSLSASVGDRVTITCRASQSILSYLNWYQQKPGKAPKLLIYAATSRASGVPSRFSGSGSGTDFTLTISSLQPEDFATYYCQQSYDSPLTFGGGTKVEIK
B2 was tested, and the binding [1] was “no binding (tested: 1 uM)” and the binding [2] was “no binding (tested: 1 uM)”.

B3: 375_H05 (antibody, V domains shown)
VH: EVQLLESGGGLVQPGGSLRLSCAASGFTFSSYSMNWVRQAPGKGLEWVSNINYNGGYTGYADSVKGRFTISRDNSKNTLYLQMNSLRAEDTAVYYCARGANWHDTALDYWGQGTLVTVSS
VL: DIQMTQSPSSLSASVGDRVTITCRASQSILSYVNWYQQKPGKAPKLLIYAATSRASGVPSRFSGSGSGTDFTLTISSLQPEDFATYYCQQSYDTPLTFGGGTKVEIK
With B3 the binding [1] was “no binding (tested: 1 uM)” and the binding [2] was “no binding (tested: 1 uM)”.

B4: 376_F06 (antibody, V domains shown)
VH: EVQLLESGGGLVQPGGSLRLSCAASGFTFSSYGMNWVRQAPGKGLEWVSGINYNGGYTGYADSVKGRFTISRDNSKNTLYLQMNSLRAEDTAVYYCARGANWHDTHLDYWGQGTLVTVSS
VL: DIQMTQSPSSLSASVGDRVTITCRASQSILTYVNWYQQKPGKAPKLVIYAATSRASGVPSRFSGSGSGTDFTLTISSLQPEDFATYYCQQSYETPLTFGGGTKVEIK
B4 was tested, and the binding [1] was “no binding (tested: 1 uM)” and the binding [2] was “no binding (tested: 1 uM)”.

B5: 376_H11 (antibody, V domains shown)
VH: EVQLLESGGGLVQPGGSLRLSCAASGFTFDSYSMNWVRQAPGKGLEWVSNINYNGGYTGYADSVKGRFTISRDNSKNTLYLQMNSLRAEDTAVYYCARGANWHDTALDYWGQGTLVTVSS
VL: DIQMTQSPSSLSASVGDRVTITCRASQSISRYLNWYQQKPGKAPKLLIYAVTSLASGVPSRFSGSGSGTDFTLTISSLQPEDFATYYCQQSYESPLTFGGGTKVEIK
B5 was tested, and the binding [1] was “no binding (tested: 1 uM)” and the binding [2] was “no binding (tested: 1 uM)”.

B6: 367_A02 (antibody, V domains shown)
VH: EVQLLESGGGLVQPGGSLRLSCAASGFTFDSYGMNWVRQAPGKGLEWVSSINYNSGYKGYADSVKGRFTISRDNSKNTLYLQMNSLRAEDTAVYYCARGATWHDTHLDYWGQGTLVTVSS
VL: DIQMTQSPSSLSASVGDRVTITCRASQSIISYLNWYQQKPGKAPKLLIYAVTSRASGVPSRFSGSGSGTDFTLTISSLQPEDFATYYCQQSYDTPLTFGGGTKVEIK
B6 was tested, and the binding [1] was “no binding (tested: 1 uM)” and the binding [2] was “no binding (tested: 1 uM)”.

B7: 368_G03 (antibody, V domains shown)
VH: EVQLLESGGGLVQPGGSLRLSCAASGFTFSSYSMNWVRQAPGKGLEWVSGINYNSGYTSYADSVKGRFTISRDNSKNTLYLQMNSLRAEDTAVYYCARGATWHDTALDYWGQGTLVTVSS
VL: DIQMTQSPSSLSASVGDRVTITCRASQSILSYLNWYQQKPGKAPKLVIYAATSRASGVPSRFSGSGSGTDFTLTISSLQPEDFATYYCQQSYDTPLTFGGGTKVEIK
B7 was tested, and the binding [1] was “no binding (tested: 1 uM)” and the binding [2] was “no binding (tested: 1 uM)”.

B8: 369_C12 (antibody, V domains shown)
VH: EVQLLESGGGLVQPGGSLRLSCAASGFTFSSYGMNWVRQAPGKGLEWVANINYNGGYKGYADSVKGRFTISRDNSKNTLYLQMNSLRAEDTAVYYCARGATWHDTHLDYWGQGTLVTVSS
VL: DIQMTQSPSSLSASVGDRVTITCRASQSILTYLNWYQQKPGKAPKLLIYAATSRHSGVPSRFSGSGSGTDFTLTISSLQPEDFATYYCQQSYDTPLTFGGGTKVEIK
B8 was tested, and the binding [1] was “no binding (tested: 1 uM)” and the binding [2] was “no binding (tested: 1 uM)”.

B9: 369_H08 (antibody, V domains shown)
VH: EVQLLESGGGLVQPGGSLRLSCAASGFTFSSYSMNWVRQAPGKGLEWVAGINYNSGYKSYADSVKGRFTISRDNSKNTLYLQMNSLRAEDTAVYYCARGATWHDTHLDYWGQGTLVTVSS
VL: DIQMTQSPSSLSASVGDRVTITCRASQSILSYVNWYQQKPGKAPKLVIYAATSLASGVPSRFSGSGSGTDFTLTISSLQPEDFATYYCQQSYESPLTFGGGTKVEIK
In the case of B9, the binding [1] is reported as “no binding (tested: 1 uM)” and the binding [2] is reported as “no binding (tested: 1 uM)”.

B10: 369_H12 (antibody, V domains shown)
VH: EVQLLESGGGLVQPGGSLRLSCAASGFTFSSYSMNWVRQAPGKGLEWVAGINYNGGYKSYADSVKGRFTISRDNSKNTLYLQMNSLRAEDTAVYYCARGATWHDTHLDYWGQGTLVTVSS
VL: DIQMTQSPSSLSASVGDRVTITCRASQSIVTYVNWYQQKPGKAPKLVIYAATSRASGVPSRFSGSGSGTDFTLTISSLQPEDFATYYCQQSYDSPLTFGGGTKVEIK
In the case of B10, the binding [1] is reported as “no binding (tested: 1 uM)” and the binding [2] is reported as “no binding (tested: 1 uM)”.

B11: 370_C07 (antibody, V domains shown)
VH: EVQLLESGGGLVQPGGSLRLSCAASGFTFSSYSMNWVRQAPGKGLEWVANINYNGGYKSYADSVKGRFTISRDNSKNTLYLQMNSLRAEDTAVYYCARGATWHDTHLDYWGQGTLVTVSS
VL: DIQMTQSPSSLSASVGDRVTITCRASQSILSYLNWYQQKPGKAPKLLIYAATSRHSGVPSRFSGSGSGTDFTLTISSLQPEDFATYYCQQSYESPLTFGGGTKVEIK
In the case of B11, the binding [1] is reported as “no binding (tested: 1 uM)” and the binding [2] is reported as “no binding (tested: 1 uM)”.

B12: 370_D03 (antibody, V domains shown)
VH: EVQLLESGGGLVQPGGSLRLSCAASGFTFSSYSMNWVRQAPGKGLEWVASINYNGGYTSYADSVKGRFTISRDNSKNTLYLQMNSLRAEDTAVYYCARGATWHDTHLDYWGQGTLVTVSS
VL: DIQMTQSPSSLSASVGDRVTITCRASQSIITYLNWYQQKPGKAPKLLIYAATSRASGVPSRFSGSGSGTDFTLTISSLQPEDFATYYCQQSYDLPLTFGGGTKVEIK
For B12, the binding [1] was “no binding (tested: 1 uM)” and the binding [2] was “no binding (tested: 1 uM)”.

B13: 370_E04 (antibody, V domains shown)
VH: EVQLLESGGGLVQPGGSLRLSCAASGFTFSSYSMNWVRQAPGKGLEWVANINYNGGYKGYADSVKGRFTISRDNSKNTLYLQMNSLRAEDTAVYYCARGATWHDTHLDYWGQGTLVTVSS
VL: DIQMTQSPSSLSASVGDRVTITCRASQSILTYLNWYQQKPGKAPKLLIYAVTSLHSGVPSRFSGSGSGTDFTLTISSLQPEDFATYYCQQSYETPLTFGGGTKVEIK
For B13, the binding [1] was “no binding (tested: 1 uM)” and the binding [2] was “no binding (tested: 1 uM)”.

B14: 370_F12 (antibody, V domains shown)
VH: EVQLLESGGGLVQPGGSLRLSCAASGFTFSDYSMNWVRQAPGKGLEWVANINYNGGYTGYADSVKGRFTISRDNSKNTLYLQMNSLRAEDTAVYYCARGATWHDTHLDYWGQGTLVTVSS
VL: DIQMTQSPSSLSASVGDRVTITCRASQSILSYLNWYQQKPGKAPKLLIYAASSLQSGVPSRFSGSGSGTDFTLTISSLQPEDFATYYCQQSYDSPLTFGGGTKVEIK
In the case of B14, the binding [1] is reported as “no binding (tested: 1 uM)” and the binding [2] is reported as “no binding (tested: 1 uM)”.

B15: 371_B01 (antibody, V domains shown)
VH: EVQLLESGGGLVQPGGSLRLSCAASGFTFDSYSMNWVRQAPGKGLEWVSNINYNSGYTGYADSVKGRFTISRDNSKNTLYLQMNSLRAEDTAVYYCARGATWHDTHLDYWGQGTLVTVSS
VL: DIQMTQSPSSLSASVGDRVTITCRASQSILSYVNWYQQKPGKAPKLLIYAATSLASGVPSRFSGSGSGTDFTLTISSLQPEDFATYYCQQSYDLPLTFGGGTKVEIK
With B15 the binding [1] was “no binding (tested: 1 uM)” and the binding [2] was “no binding (tested: 1 uM)”.

B16: 371_E12 (antibody, V domains shown)
VH: EVQLLESGGGLVQPGGSLRLSCAASGFTFDSYSMNWVRQAPGKGLEWVSGINYNSGYKSYADSVKGRFTISRDNSKNTLYLQMNSLRAEDTAVYYCARGATWHDTHLDYWGQGTLVTVSS
VL: DIQMTQSPSSLSASVGDRVTITCRASQSILSYLNWYQQKPGKAPKLLIYAATSLASGVPSRFSGSGSGTDFTLTISSLQPEDFATYYCQQSYDTPLTFGGGTKVEIK
In the case of B16, the binding [1] is reported as “no binding (tested: 1 uM)” and the binding [2] is reported as “no binding (tested: 1 uM)”.

B17: 371_F09 (antibody, V domains shown)
VH: EVQLLESGGGLVQPGGSLRLSCAASGFTFSSYSMNWVRQAPGKGLEWVAGINYNGGYTSYADSVKGRFTISRDNSKNTLYLQMNSLRAEDTAVYYCARGATWHDTHLDYWGQGTLVTVSS
VL: DIQMTQSPSSLSASVGDRVTITCRASQSILTYLNWYQQKPGKAPKLLIYAATSRASGVPSRFSGSGSGTDFTLTISSLQPEDFATYYCQQSYDNPLTFGGGTKVEIK
For B17, the binding [1] was “no binding (tested: 1 uM)” and the binding [2] was “no binding (tested: 1 uM)”.

B18: 373_A10 (antibody, V domains shown)
VH: EVQLLESGGGLVQPGGSLRLSCAASGFTFSSYGMNWVRQAPGKGLEWVSGINYNSGYTSYADSVKGRFTISRDNSKNTLYLQMNSLRAEDTAVYYCARSANWHDTALDYWGQGTLVTVSS
VL: DIQMTQSPSSLSASVGDRVTITCRASQSILSYLNWYQQKPGKAPKLVIYAATSRASGVPSRFSGSGSGTDFTLTISSLQPEDFATYYCQQSYDLPLTFGGGTKVEIK
In the case of B18, the binding [1] is reported as “no binding (tested: 1 uM top)”.
